Experimental data taken from PubChem BioAssay AID2685 (National Center for Advancing Translational Sciences (NCATS), 2010).
The other results are listed elsewhere or left out. These are further read-outs of the screen, such as a control signal, another cell line or another target. No call is given for them. The list favours compounds with an active or inconclusive main result. Potencies come from curve fits of mixed quality, noted in brackets.

Assay: qHTS Assay for Lipid Storage Modulators in Drosophila S3 Cells;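 on cell number change: cells counted by Cell Tracker Red CMTPX staining in the red channel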
Conditions: BODIPY lipid droplet fluorescence, 18-24 h; for cell number change: measured here: cell count max response, cells fed with added oleic acid
Outline: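 Laser-scanning cytometry quantifies lipid droplet accumulation (500–530 nm total intensity; droplet/cell object ratio) in oleic acid-fed (400 uM added) Drosophila S3 cells treated with a concentration series. 20 uM Triacsin C defined 100% inhibition.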

[1] = measured here: cell number channel AC50, cells fed with added oleic acid
[2] = measured here: lipid fluorescence (Fed channel) AC50, cells fed with added oleic acid

SMILES	cell number change	AC50 [1]	AC50 [2]
CCc1[nH]nc(C(=O)N2CCCC(N3CCN(c4ccccc4C)CC3)C2)c1C (stereo not drawn)	-41.1%	32.6 µM [falling, partial curve, poor fit]	29.1 µM [rising, single point]
O=C(CCN1C(=O)c2ccccc2C1=O)Nc1ccc(-c2nc3ccccc3o2)cc1	53.1%	5.8 µM [rising, full curve, poor fit]	1.16 µM [rising, full curve]
N#Cc1ccc(Oc2cccc3cccnc23)c([N+](=O)[O-])c1	3.55%		
CCCCn1c(N)c(N(CCOC)C(=O)c2ccc(Br)s2)c(=O)[nH]c1=O	39.8%	16.4 µM [rising, single point]	
Cn1cccc1/C=N/NC(=O)CNc1cccc2ccccc12	-1.71%		
COc1ccc(CCN2C(=O)CC(C(C)c3ccccc3)C2=O)cc1OC (stereo not drawn)	38.9%	7.31 µM [rising, partial curve, poor fit]	
COc1ccc(OC)c(NC(=O)CSc2nn3c(=O)c(C)nnc3s2)c1	20.1%		6.51 µM [rising, single point]
CCCCn1c(N)c(N(CCC(C)C)C(=O)c2cccc(-n3cnnn3)c2)c(=O)[nH]c1=O	-7.63%	4.11 µM [falling, single point]	
CCOc1cc(C=O)ccc1OCCn1c([N+](=O)[O-])cnc1C	-30.5%	1.64 µM [falling, full curve, poor fit]	
COc1cc(-c2cc(C(=O)Nc3ccc(S(N)(=O)=O)cc3)c3ccccc3n2)cc(OC)c1OC	26.3%		
CCOC(=O)C1CCN(c2c([N+](=O)[O-])c(C(Cl)Cl)nn2-c2ccccc2)CC1			0.651 µM [rising, single point]
O=c1c2c(nc3nc(CCc4ccccc4)[nH]n13)CCC2			6.51 µM [falling, single point]
CCC(CC)C(=O)Nc1c2c(nn1-c1ccc(OC)cc1)CS(=O)(=O)C2	161%		
COCCN(CCOC)S(=O)(=O)c1ccc(C(=O)NCCCN2CCOCC2)cc1	1.98%		
Cn1c(=O)[nH]c(=O)c2c1nc(N1CCCC1)n2CCCSc1nnnn1-c1ccccc1	-17.2%		20.6 µM [falling, single point]
O=C1c2ccccc2NC(c2ccc(O)cc2)N1/N=C/c1ccc(O)cc1 (stereo not drawn)	4.37%		29.1 µM [rising, single point]
CC1(C)CC2(CCO1)OC(=O)CC2C(=O)Nc1ccc(Cl)cc1[N+](=O)[O-] (stereo not drawn)	-8.26%		0.58 µM [falling, full curve, poor fit]
CC1CN(C(=O)c2cccc(S(=O)(=O)Nc3cc(Cl)ccc3Cl)c2)CC(C)O1 (stereo not drawn)			18.4 µM [rising, partial curve]
O=C(c1ccc(=O)[nH]c1)N(Cc1ccco1)C1(C(=O)NC2CCCCC2)CCCCC1			0.58 µM [falling, single point]

SMILES	cell number change	AC50 [1]	AC50 [2]
COCCN(C(=O)CC1OC(=O)c2ccccc21)c1c(N)n(Cc2ccccc2)c(=O)[nH]c1=O (stereo not drawn)	3.03%		29.1 µM [falling, partial curve, poor fit]
COc1cccc(-n2nnnc2SCC(=O)NCCc2ccccc2)c1	50.5%	6.51 µM [rising, partial curve]	0.58 µM [rising, partial curve]
C=CCN(c1ccccc1)S(=O)(=O)c1ccc2c(c1)oc(=O)n2C	-8.95%		0.00461 µM [falling, full curve, poor fit]
O=C(O)CSc1nc2ccccc2c(=O)[nH]1	-8.02%	0.146 µM [falling, full curve, poor fit]	
O=C(NC(Cc1ccccc1)C(=O)O)/C(=C\c1ccccc1)NC(=O)c1ccc(Br)o1 (stereo not drawn)	1.76%		7.31 µM [rising, partial curve, poor fit]
Cc1cccc(N(C)C(=O)c2cnn(-c3ccccc3)c2C)c1	14.4%		
CC(=O)NS(=O)(=O)c1ccc(NC(=O)/C=C/c2ccccc2)cc1	-2.62%		6.51 µM [falling, partial curve, poor fit]
Cc1ccc(C(=O)NC2CCCCCC2)cc1S(=O)(=O)N1CCOCC1	-12.9%		1.3 µM [falling, full curve, poor fit]
Cc1cc(C(=O)CSc2cccc[n+]2[O-])c(C)n1-c1ccccc1	32.8%	35.5 µM [rising, single point]	
Cc1cc(NC(=O)C(C)SCC(=O)OCC(=O)N(C)c2ccccc2)no1 (stereo not drawn)	-43.1%	25.9 µM [falling, single point]	20.6 µM [falling, single point]
COC(=O)CC1=NN(c2ccc(OC)cc2)C(=O)/C1=C\c1ccc(Cl)cc1	-9.31%		2.31 µM [falling, partial curve, poor fit]
Cc1ccc(F)cc1NC(=O)CCc1c(C)[nH]c(=O)c(C#N)c1C	2.63%	0.146 µM [rising, partial curve, poor fit]	
COc1cccc(COc2ccc3ccc(=O)oc3c2)c1	14.2%		
CCOC(=O)c1c(S(=O)(=O)Nc2ccc(CN3CCC(C)CC3)cc2)c(C)n(C)c1C	0.236%		
CN(NC(=O)C1CC(=O)N(c2ccccc2)C1)C1=NS(=O)(=O)c2ccccc21 (stereo not drawn)	2.72%	0.461 µM [falling, single point]	0.461 µM [falling, partial curve, poor fit]
O=C(Nc1ccc2ccccc2c1)/C(=C/c1cccc(Br)c1)NC(=O)c1ccco1	19.2%		23.1 µM [rising, single point]
O=C(O)CC1COc2ccccc2N1S(=O)(=O)c1ccc(Br)cc1 (stereo not drawn)	-15.7%		29.1 µM [rising, single point]
COc1cc(/C=C2\SC(=O)N(c3ccccc3Cl)C2=O)cc([N+](=O)[O-])c1O	-19%		29.1 µM [falling, single point]
O=C(CN1C(=O)NC2(CCCC2)C1=O)N1CCN(S(=O)(=O)c2ccccc2Br)CC1	-7.18%		

In another format: two of the compounds above
COCCN(C(=O)CC1OC(=O)c2ccccc21)c1c(N)n(Cc2ccccc2)c(=O)[nH]c1=O (stereo not drawn)
  cell number change: 3.03%
  AC50 [2]: 29.1 µM [falling, partial curve, poor fit]
COc1cccc(-n2nnnc2SCC(=O)NCCc2ccccc2)c1
  cell number change: 50.5%
  AC50 [1]: 6.51 µM [rising, partial curve]
  AC50 [2]: 0.58 µM [rising, partial curve]
